Results deposited as PubChem BioAssay AID686943 (Drosophila RNAi Screening Center, 2013).
Assay: 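Knockdowns that increase or decrease active ERK after insulin receptor stimulation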 (primary screen). Cell system: Drosophila S2R+ haemocyte-like cells expressing YFP-tagged ERK (Rolled). Reagents: long dsRNA against Drosophila genes. Treatment: insulin stimulation versus unstimulated cells; dose and duration not given. Detection: 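Per-plate z-scores of phospho-ERK immunostaining normalised to YFP-tagged ERK, measured with and without insulin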. Direction: replicate 1, z-score of dpERK with insulin and replicate 2, z-score of dpERK with insulin: higher = more active ERK per ERK-YFP after insulin; replicate 1, z-score of dpERK under basal conditions: higher = more basal active ERK per ERK-YFP; replicate 1, z-score of ERK-YFP with insulin: higher = more YFP-tagged ERK signal.
The screen tested about 23,000 reagents; below is an unselected part of those with a known target gene and a result. 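Extra replicates exist only for a retested subset of genes; insulin dose and duration not given; both raised and lowered dpERK matter.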 A plus sign joins genes that one reagent is predicted to hit. Not stated in the record: the amount of reagent, the time to read-out.

| gene | amplicon | replicate 1, z-score of dpERK with insulin | replicate 2, z-score of dpERK with insulin | replicate 1, z-score of dpERK under basal conditions | replicate 1, z-score of ERK-YFP with insulin |
| --- | --- | --- | --- | --- | --- |
| Phax (Phosphorylated adaptor for RNA export) | DRSC07066 | 0 | 0.23 | -0.18 | 0.56 |
| PGRP-LD + Pmi | DRSC10512 | -0.16 | 0.35 | -1.45 | 0.68 |
| PGRP-LD + Pmi | DRSC10513 | 1.12 | 0.49 | 0.63 | -0.23 |
| CaBP1 (calcium-binding protein 1) | DRSC01984 | -0.55 | -0.04 | 0.4 | -0.14 |
| HipHop (HP1-HOAP-interacting protein) | DRSC10734 | 0.33 | -0.19 | 0.45 | 0.29 |
| Dlg5 (Discs large 5) | DRSC02964 | 1.08 | -0.14 | -0.86 | -1.56 |
| CG5033 | DRSC07410 | 0.34 | 0.54 | -0.29 | -0.08 |
| Srrm1 (Serine-arginine repetitive matrix 1) | DRSC09835 | -0.5 | 0.08 | -0.31 | 1.3 |
| CG18011 | DRSC06697 | 0.66 | -0.16 | 0.19 | -0.56 |
| CG18011 | DRSC06706 | 0.64 | 0.54 | 0.53 | 0.86 |
| CG17855 | DRSC02638 | -0.09 | -0.26 | -0.84 | 1.19 |
| Smyd5 (SET and MYND domain containing, class 5) | DRSC15483 | -0.42 | 0.91 | -0.37 | -1.34 |
| CysRS-m (Cysteinyl-tRNA synthetase, mitochondrial) | DRSC07129 | -0.19 | -0.51 | -0.01 | 0.38 |
| alpha-Catr (alpha-catenin related) | DRSC04669 | 1.12 | -0.33 | -0.03 | -0.97 |
| Bcs1 (Bcs1 chaperone) | DRSC02789 | -0.13 | -0.19 | 0.4 | -0.53 |
| bonsai | DRSC04453 | -1.12 | 0.07 | -1.12 | 2.34 |
| Scp1 (Sarcoplasmic calcium-binding protein 1) | DRSC20799 | 0.41 | 0.44 | -0.97 | -0.64 |
| Scp1 (Sarcoplasmic calcium-binding protein 1) | DRSC20803 | -0.4 | -0.95 | 0.25 | -0.11 |
| Scp1 (Sarcoplasmic calcium-binding protein 1) | DRSC20806 | -0.17 | -0.28 | 0.41 | -0.13 |
| CG8788 | DRSC07267 | 0.47 | 0.8 | -0.17 | 0.38 |

Laid out differently: entries from further up.
gene,amplicon,"replicate 1, z-score of dpERK with insulin","replicate 2, z-score of dpERK with insulin","replicate 1, z-score of dpERK under basal conditions","replicate 1, z-score of ERK-YFP with insulin"
Dlg5 (Discs large 5),DRSC02964,1.08,-0.14,-0.86,-1.56
CG5033,DRSC07410,0.34,0.54,-0.29,-0.08
Srrm1 (Serine-arginine repetitive matrix 1),DRSC09835,-0.5,0.08,-0.31,1.3
CG18011,DRSC06697,0.66,-0.16,0.19,-0.56
CG18011,DRSC06706,0.64,0.54,0.53,0.86
CG17855,DRSC02638,-0.09,-0.26,-0.84,1.19
"Smyd5 (SET and MYND domain containing, class 5)",DRSC15483,-0.42,0.91,-0.37,-1.34
"CysRS-m (Cysteinyl-tRNA synthetase, mitochondrial)",DRSC07129,-0.19,-0.51,-0.01,0.38
alpha-Catr (alpha-catenin related),DRSC04669,1.12,-0.33,-0.03,-0.97
Bcs1 (Bcs1 chaperone),DRSC02789,-0.13,-0.19,0.4,-0.53

More entries:
| gene | amplicon | replicate 1, z-score of dpERK with insulin | replicate 2, z-score of dpERK with insulin | replicate 1, z-score of dpERK under basal conditions | replicate 1, z-score of ERK-YFP with insulin |
| --- | --- | --- | --- | --- | --- |
| Adgf-B (Adenosine deaminase-related growth factor B) | DRSC10568 | -0.78 | -0.22 | -1.1 | 0.43 |
| CG1907 | DRSC15399 | 0.27 | 0.01 | -0.31 | 1.3 |
| casp (caspar) | DRSC07164 | 0.36 | -0.27 | 0.75 | -0.08 |
| CG32603 | DRSC19409 | -0.17 | -0.03 | -0.89 | -0.3 |
| CG32603 | DRSC21586 | 0.14 | 0.54 | 0.59 | -0.5 |
| CG17508 | DRSC07771 | 0.33 | 0.53 | 0.74 | 0.22 |
| Nipped-B | DRSC07815 | -0.07 | 0.21 | -2.2 | 1.43 |
| betaNACtes6 (Nascent-associated complex beta-subunit-like, testis 6) | DRSC22925 | -0.16 | 0.22 | 0.19 | 0.51 |
| stwl (stonewall) | DRSC11400 | 0.25 | -0.46 | 0 | -1.13 |
| cyst (cysts) | DRSC02023 | -0.7 | -0.25 | 0.15 | -0.33 |
| Blm (Bloom syndrome helicase) | DRSC16911 | -0.33 | 0.59 | -0.21 | -0.76 |
| Rb97D (Ribonuclear protein at 97D) | DRSC16815 | 0.34 | -0.18 | -0.51 | 0.9 |
| Nmdmc (NAD-dependent methylenetetrahydrofolate dehydrogenase) | DRSC16760 | 0.04 | 0.04 | -0.2 | -0.12 |
| sky (skywalker) | DRSC02383 | 0.64 | -0.01 | -0.15 | -0.34 |
| sky (skywalker) | DRSC03214 | 2.04 | 1.14 | -0.67 | -2.41 |
| sky (skywalker) | DRSC03215 | 0.61 | -0.25 | -0.88 | -0.23 |
| CG3819 | DRSC10378 | 0.31 | 0.02 | -1.39 | -0.28 |
| alien | DRSC03482 | -0.91 | 0.51 | -0.84 | -0.13 |
| Ada3 (transcriptional Adaptor 3) | DRSC20321 | 1.32 | 1.7 | 0.19 | 0.39 |
| Ada3 (transcriptional Adaptor 3) | DRSC20322 | 0.24 | 0.5 | -0.39 | 0.23 |
| CG30412 | DRSC04564 | 0.32 | 0.2 | -0.21 | 0.28 |
| Rab40 | DRSC19820 | 0.51 | 1.99 | 4.41 | 0.48 |
| CG1545 | DRSC21532 | -0.16 | -0.24 | 1.02 | 0.52 |
| Pcd (pterin-4a-carbinolamine dehydratase) | DRSC16785 | 1.88 | 3.29 | -0.09 | -0.68 |
| faf (fat facets) | DRSC16942 | 0.58 | 0.49 | 0.22 | 0.65 |
| CG10466 | DRSC02060 | 0.57 | 0.11 | -0.58 | -0.42 |
| CG3045 | DRSC04331 | 0.4 | 0.07 | 0.34 | 0.24 |
| rols (rolling pebbles) | DRSC09873 | -0.73 | -1.59 | -3.02 | 1.24 |
| rols (rolling pebbles) | DRSC10254 | -0.09 | -0.63 | -0.21 | 0.19 |
| rols (rolling pebbles) | DRSC10536 | 0.85 | 0.48 | -0.72 | -0.65 |
| CG9458 | DRSC16495 | 1.1 | 2.47 | 1.52 | -0.41 |
| dbe (dribble) | DRSC00811 | 0.43 | -0.04 | 0.48 | -0.31 |
| rudhira | DRSC19821 | -1.51 | -2.26 | -2.14 | -0.86 |
| rudhira | DRSC22111 | 0 | 0.5 | -0.44 | -0.67 |
| CG8501 | DRSC07198 | 0.5 | 0.41 | -0.49 | 0.03 |
| CG34278 | DRSC13208 | -0.52 | -0.16 | 0.53 | 0.25 |
| tweek | DRSC02433 | -0.44 | -0.32 | 1.27 | 0.49 |
| tweek | DRSC02434 | -1.19 | -0.67 | -0.35 | -0.14 |
| tweek | DRSC02785 | -0.54 | 0.83 | -0.2 | 0.37 |
